Like-named read-outs stand apart in the source and are kept apart here. Construct, isoform or probe ends are uncertain for at least one entry. The comparison behind a weaker result is the experiment's own reference, which may not be listed here.
Molecular target: ZnF3 PARP1 (Homo sapiens) (UniProt P09874)
Assay: fluorescence polarization

By UniProt entry, the sequences of proteins in these tests, tags left out. Residues count along the entry.
UniProt P09874, 225-359: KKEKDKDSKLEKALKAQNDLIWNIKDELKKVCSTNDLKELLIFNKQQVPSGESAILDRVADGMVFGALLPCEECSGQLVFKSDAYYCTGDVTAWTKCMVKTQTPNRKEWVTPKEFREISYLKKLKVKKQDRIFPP

| Sequence | binding result | binding result (5'-phosphate (printed for unlabelled oligo)) |
| --- | --- | --- |
| GCCTACCGGTTCGAATGGCAGC (double strand) [DSB DNA (5-FAM labelled)] | binds more weakly |  |
| GCTGGCTTCGTAAGAAGCCAGCTCGCGGTCAGCTTGCTGACCGCG [SSB DNA dumbbell 45-mer (5-FAM labelled)] |  | binds more weakly |

From article doi:10.1101/2021.12.21.473685
